From patent publication US4659691A (Merck & Co., Inc., priority 1985, dated 1987) come the findings set out here.

HELM strings list residues between dots; [ac] is acetyl, [am] amide, other brackets name non-standard units.

A short description of the data set: general procedure: Boc solid-phase peptide synthesis; Boc-Pro esterified to 2% cross-linked polystyrene-divinylbenzene; dicyclohexylcarbodiimide.

H-Tyr(Bzl)-D-Trp-Leu-Arg-Trp-Pro-OCH2 showed a crude mass (whole synthesis, scale 2 mmol) of 2.22 g.

For “PEPTIDE1{Y.[dW].L.R.W.P}$PEPTIDE1,PEPTIDE1,6:R2-1:R1$$$V2.0”, the “final HPLC purity” value (late stage modification step, HPLC) is 86%.
